Test results reported in PubChem BioAssay AID624297 (National Center for Advancing Translational Sciences (NCATS), 2012).
Where “and” joins values, the source holds several entries; their conditions need not be identical. Equal values may be shown once. Among all 340,000 compounds or so, about 6,200 (1.8%) were called active. Inconclusive means that the source gave no clear call. Such entries were picked first, then a sample of the others. Calls follow the shape of the dose curve; as a rule, active = well fitted activation curve with a large enough effect; inconclusive = small, poorly fitted or top-dose-only effect; inactive = no such curve, though single readings can be large or run the other way. Potencies of inconclusive entries are doubtful fits and often do not repeat.
Potency is read from the fitted curve at half-maximal effect.

Experiment: A quantitative high throughput screen for small molecules that induce DNA re-replication in SW480 colon adenocarcinoma cells. Also: nearly all actives have a fitted effect of over 55% in size. As to re-replication activation: % of control where 0% means no effect.
Details: Hoechst DNA content imaging, 48 h; re-replication activation: at 46.1 µM (top of the series) unless noted
Method in brief: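 250 cells/well; 23 nL cpd via pin tool; 48 hr, 37 C, 5% CO2; Hoechst 40 min; imager read of total nuclear intensity, ex 405/em 500-530 nm.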
For `CN1CCc2c(sc3c2C(=O)NC(c2ccccn2)N3)C1` (configuration not stated), the “re-replication activation” value was inactive: 2.98%.
For `C[C@@H]1C[C@H]2[C@@H]3CCC4=CC(=O)C=C[C@]4(C)[C@@]3(Cl)[C@@H](O)C[C@]2(C)[C@@]1(OC(=O)c1ccco1)C(=O)CCl`, the Potency was inconclusive: 8.2 µM [activator, partial curve].
For `Cc1nc(N/N=C/c2ccc(O)cc2)c2cnn(-c3ccccc3)c2n1`, the “re-replication activation” value was inactive: -25.7%.
With `CC1=Nc2ccccc2/C1=C/c1sc(=N)n(-c2nccs2)c1O` the re-replication activation was inactive: 10.8% [at 9.22 µM].
For `CN1CCCN(C(c2ccccc2)c2ccc(Cl)cc2)CC1` (configuration not stated), the Potency was inconclusive: 33.5 µM [activator, single point] and inconclusive: 5.01 µM [activator, partial curve, poor fit].
For `Cc1ccc(C(=O)C(C(=O)/C=C/c2ccccc2)=C2SCCCS2)cc1`, the Potency was inconclusive: 29.1 µM [activator, single point].
For `O=S(=O)(NC1CCN(S(=O)(=O)c2c(F)cccc2F)CC1)c1ccc2c(c1)OCCO2`, the “re-replication activation” value was inactive: 15.1%.
In the case of `Cc1ccc(OCCCCCCN2CCNCC2)c(Br)c1`, the Potency is reported as inconclusive: 16.4 µM [activator, single point].
For `O=C(C[C@H]1C/C=C\CC[C@H](Cc2ccc(F)cc2)C(=O)OC[C@H]2CCCN2C1=O)NCCO`, the “re-replication activation” value was inactive: -3.05%.
For `Cn1c(N)c(C(=O)CCl)c(=O)n(Cc2ccccc2)c1=O`, the Potency was inconclusive: 25.9 µM [activator, single point].
For `COc1ccc2[nH]c3c(c2c1)CCN1C(=O)C(CC(=O)NC(C)(C)C)C[C@H](C(=O)N2CCOCC2)[C@@]31CCC1CCCC1` (some centres not stated), the Potency was inconclusive: 3.66 µM [activator, partial curve, poor fit].
In the case of `O=S(=O)(Nc1ccc(Br)cc1)N1CCOCC1`, the Potency is reported as inconclusive: 29.1 µM [activator, single point].
With `COc1ccc(N2CCN(c3nc(C)c(C)c(=O)[nH]3)CC2)cc1` the Potency was inconclusive: 6.51 µM [activator, single point].
With `CCNC(=S)N(CCc1c(C)[nH]c2ccc(C)cc12)Cc1cc(OC)c(OC)c(OC)c1` the Potency was inconclusive: 16.4 µM [activator, partial curve, poor fit].
In the case of `O=C(CSc1nnc(C23CC4CC(CC(C4)C2)C3)o1)Nc1ccc(N2CCOCC2)c(Cl)c1`, the Potency is reported as inconclusive: 12.6 µM [activator, partial curve, poor fit].
For `O=C(CCS(=O)(=O)c1ccc(F)cc1)Nc1nc(-c2ccncc2)cs1`, the Potency was inconclusive: 14.6 µM [activator, single point].
With `OCC#CCSc1nnc(-c2cccc3ccccc23)o1` the “re-replication activation” value was inactive: -7.23%.
In the case of `CN(C)c1ccc(/C=N\NC(=O)c2ccc(Cn3cc(Cl)cn3)cc2)cc1`, the Potency is reported as inconclusive: 29.1 µM [activator, partial curve, poor fit].
For `Cc1ccc2c(CN3CCOCC3)cc(=O)oc2c1`, the Potency was inconclusive: 14.6 µM [activator, single point].
In the case of `CC(=O)N1CCN(c2ccc(NCc3ccc(-c4cccc(Cl)c4)o3)cc2)CC1`, the Potency is reported as inconclusive: 20.6 µM [activator, single point].
For `Cn1nnnc1Sc1ncnc2scc(-c3cccc(Br)c3)c12`, the Potency was inconclusive: 6.51 µM [activator, partial curve, poor fit].
In the case of `Oc1ccc2ccccc2c1CN1CCCCC1`, the “re-replication activation” value is reported as inactive: -5.7%.
For `Cc1cccc(CCNC(=O)C2CCN(S(=O)(=O)c3cccc4nsnc34)CC2)c1`, the Potency was inconclusive: 5.8 µM [activator, full curve].
For `Cc1ccc(C(=O)Nc2ncc3c(Cl)cccc3n2)cc1`, the Potency was inconclusive: 32.6 µM [activator, partial curve, poor fit].
For `Cn1c(-c2ccc(Cl)cc2)cnc1NCc1cc2c(cc1[N+](=O)[O-])OCO2`, the “re-replication activation” value was inactive: -1.22%.
For `Cc1ccccc1-c1nc2sc3c(c2c(=O)n1N)CCCC3`, the “re-replication activation” value was inactive: 0.708%.
With `Cc1noc(C)c1CSc1nc2[nH]ncc2c(=O)n1-c1ccccc1` the Potency was inconclusive: 0.291 µM [activator, full curve, poor fit].
In the case of `C/C(=N\NC(=O)c1ccccn1)c1ccc(Cl)cc1`, the “re-replication activation” value is reported as inactive: -7.69%.
In the case of `Fc1ccc(CNC(=S)NC2CCCCC2)cc1`, the Potency is reported as inconclusive: 29.1 µM [activator, single point].
In the case of `C#CCn1c(S(=O)(=O)Cc2ccc(C)cc2)nc(-c2ccccc2)c1-c1ccccc1`, the Potency is reported as inconclusive: 11.6 µM [activator, partial curve, poor fit].
For `Cc1ccc(-n2nc3c(N4CCC(C(=O)NCCc5cccs5)CC4)nnc(C)c3c2C)cc1`, the Potency was inconclusive: 20.6 µM [activator, single point].
For `N#Cc1nc(-c2cccs2)oc1NCc1ccc2c(c1)OCO2`, the “re-replication activation” value was inactive: 1.06%.
In the case of `c1ccc2c(c1)ncn2CCC1CCCCC1`, the Potency is reported as inconclusive: 25.9 µM [activator, partial curve, poor fit].
For `Cc1ccc(N/C=C2\C(=O)N(c3ccc(F)cc3F)C(c3cccnc3)S2(=O)=O)cc1` (configuration not stated), the Potency was inconclusive: 7.31 µM [activator, partial curve, poor fit].
With `CC(=O)O[C@@H]1[C@@]2(C)O[C@H]2CC[C@]23O[C@H]2[C@H](OC3=O)C2=C(C)C(=O)O[C@@]21O` the Potency was inconclusive: 0.82 µM [activator, partial curve, poor fit].
With `O=C(O)CC(CC(=O)O)(C(=O)O)c1ccccc1` the “re-replication activation” value was inactive: -10.8%.
For `O=C1c2oc3ccc(F)cc3c(=O)c2C(c2ccccc2)N1CC1CCCO1` (configuration not stated), the “re-replication activation” value was inactive: -6.02%.
With `CC(O)CC(=O)NOCc1ccccc1` (configuration not stated) the Potency was inconclusive: 23.1 µM [activator, partial curve, poor fit].
In the case of `Cn1nccc1C(=O)N/N=C/c1c(O)ccc2ccccc12`, the Potency is reported as inconclusive: 16.4 µM [activator, single point].
For `O=C(CN1CCOCC1)Nc1ccc(S(=O)(=O)NC2CCCCC2)cc1`, the Potency was inconclusive: 29.1 µM [activator, partial curve, poor fit].
For `Cc1ccc(C(=O)N/N=C\c2ccc(-c3ccc(Cl)c(Cl)c3)o2)cn1`, the Potency was inconclusive: 29.1 µM [activator, single point].
In the case of `O=c1ccc(-c2ccc(S(=O)(=O)Nc3ccc(F)cc3)s2)n[nH]1`, the “re-replication activation” value is reported as inactive: -16.3%.
For `O=C(NCC1CCCO1)c1cc2ccccc2cc1O` (configuration not stated), the “re-replication activation” value was inactive: -0.635%.
In the case of `CN1CCN(c2nc3c(c(=O)[nH]c(=O)n3C)n2Cc2ccc(Cl)cc2)CC1`, the “re-replication activation” value is reported as inactive: -1.53%.
With `COCCCNC(=O)c1ccc(N2CCOCC2)c(NS(=O)(=O)c2ccc(OC)cc2)c1` the Potency was inconclusive: 29.1 µM [activator, single point].
With `Cc1ccc(C2(CCNCc3ccc(N(C)C)cc3)CCOC(C(C)C)C2)cc1` (configuration not stated) the Potency was inconclusive: 18.4 µM [activator, single point].
In the case of `CC(C(=O)NCC1CCCCC1)N1CCN(S(=O)(=O)c2cccs2)CC1` (configuration not stated), the Potency is reported as inconclusive: 20.6 µM [activator, partial curve, poor fit].
With `Cc1ccc(-c2nc(CSCC(=O)NC3CCN(Cc4ccccc4)CC3)c(C)o2)cc1` the Potency was inconclusive: 18.4 µM [activator, single point].
For `Cc1c(-c2cccc(Cl)c2)nc2ccccc2c1C(=O)NC1CC1`, the “re-replication activation” value was inactive: -6.91%.
For `Cc1c(NS(=O)(=O)c2ccc(N(C)C3CCCCC3)c([N+](=O)[O-])c2)c(=O)n(-c2ccccc2)n1C`, the Potency was inconclusive: 29.1 µM [activator, partial curve, poor fit].
In the case of `COCCNC(=S)NN(c1ccccc1)c1ccccc1`, the Potency is reported as inconclusive: 14.6 µM [activator, single point].
With `COc1ccc(OC)c(N(CC(=O)N2CCCC2)S(=O)(=O)c2ccc(C)cc2)c1` the Potency was inconclusive: 29.1 µM [activator, single point].
In the case of `CN(C)CCN(C(=O)/C=C/c1cccs1)c1nc2ccc(Br)cc2s1`, the Potency is reported as inconclusive: 18.4 µM [activator, single point].
With `O=C(O)c1ccc(/C=C(\c2nc3ccccc3[nH]2)c2nc3ccccc3s2)cc1` the Potency was active: 11.6 µM.
In the case of `C/C(=N\NC(=O)c1c([N+](=O)[O-])c(C)nn1C)c1ccc(NC(=O)C2CCCC2)cc1`, the Potency is reported as active: 5.8 µM.
With `CCc1ccc(NC(=O)CSc2nc(=O)n(CCCN3CCOCC3)c3c2CCCC3)cc1` the Potency was inconclusive: 20.6 µM [activator, single point].
For `O=P(c1ccccc1)(c1ccccc1)c1nc(-c2ccc(Cl)cc2)oc1N1CCOCC1`, the Potency was inconclusive: 32.6 µM [activator, single point].
In the case of `CN(CC(=O)Nc1cccc(F)c1)C(=O)C1(c2ccccc2)CC1`, the Potency is reported as inconclusive: 8.2 µM [activator, partial curve, poor fit].
For `O=c1cc(-c2ccc(O)cc2)oc2c(O)c(O)c(O)c(O)c12`, the “re-replication activation” value was inactive: 2.52%.
For `O=C(NN1C(=O)C2C(C1=O)C1C=CC2C12CC2)c1ccccc1` (configuration not stated), the “re-replication activation” value was inactive: -3.92%.
With `Cn1c(S(=O)(=O)O)nc2ccccc21` the Potency was inconclusive: 29.1 µM [activator, single point].
With `COc1ccc(NC(=O)c2cnc(SCC(=O)NCCc3ccccc3)n(C)c2=O)cc1` the Potency was inconclusive: 29.1 µM [activator, single point].
For `O=C(CCC(=O)c1ccc(Oc2ccccc2)cc1)Nc1cccc(Cl)c1`, the “re-replication activation” value was inactive: -2.18%.
In the case of `CC(C)(C)c1ccc(OCCCCCCN2CCNCC2)cc1`, the Potency is reported as inconclusive: 18.4 µM [activator, single point].
In the case of `Cc1ccc(S(=O)(=O)NCc2ccncc2)c(C)c1C`, the “re-replication activation” value is reported as inactive: 3.33%.
For `C/C(=N\NC(=O)c1cc(C)nc2ccccc12)c1cccc(Cl)c1`, the “re-replication activation” value was inactive: 0.89%.
For `CCCCCCSc1cccc(-c2nc3ccc(Cl)cn3c2NCCCC)c1`, the “re-replication activation” value was inactive: -4.35%.
